Laboratory results reported in publication PMC6405243.
Results are given in words; binding and its absence hold for the method and conditions named. For part of these data: Binding seen in cells or lysates may run through a third protein. Some entries that bind do so weakly or less than the wild type. For part of these data: Tags and fused reporters may be left off the sequences shown. Blank lines part the entries; values can stand above or below the binder they belong to.

Experiments:
[1] = molecular target: T1, Atg12 lacking the N-terminal 56 residues (Atg12^ΔN56) (S. cerevisiae) (UniProt P38316); experiment: co-IP; as a2, anti-FLAG precipitation of Atg5-FLAG from atg12Δ cells expressing Atg12^ΔN56 from a centromeric plasmid; rapamycin 2 hr; immunoblot for Atg17
T1 sequence: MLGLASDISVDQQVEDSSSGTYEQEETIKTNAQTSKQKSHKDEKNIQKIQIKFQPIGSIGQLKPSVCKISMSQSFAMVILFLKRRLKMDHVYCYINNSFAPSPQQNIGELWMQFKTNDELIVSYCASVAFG

[2] = molecular target: T2, Atg12 C-terminally fused with GFP (Atg12-GFP) (S. cerevisiae) (UniProt P38316); experiment: co-IP; GFP-binding protein-conjugated beads, Atg12-GFP as bait; atg1Δ atg13Δ atg29Δ atg31Δ (strain also atg11Δ) cells overexpressing ATG17 and ATG12-GFP with the ADH1 promoter; rapamycin 2 hr; immunoblot
T2 sequence: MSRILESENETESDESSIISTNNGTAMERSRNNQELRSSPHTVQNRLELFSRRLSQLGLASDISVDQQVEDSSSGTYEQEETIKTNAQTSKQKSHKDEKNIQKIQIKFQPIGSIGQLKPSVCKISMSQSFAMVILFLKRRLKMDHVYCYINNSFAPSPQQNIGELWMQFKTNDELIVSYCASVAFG

[3] = molecular target: T3, Atg12 fused with the Gal4 DNA-binding domain (pGBD-ATG12) (S. cerevisiae) (UniProt P38316); experiment: two-hybrid; AH109 cells with GAD and GBD fusions, 30°C, 3 days, growth on -LWH or -LWA plates; also in atg13Δ atg31Δ AH109 cells
T3 sequence: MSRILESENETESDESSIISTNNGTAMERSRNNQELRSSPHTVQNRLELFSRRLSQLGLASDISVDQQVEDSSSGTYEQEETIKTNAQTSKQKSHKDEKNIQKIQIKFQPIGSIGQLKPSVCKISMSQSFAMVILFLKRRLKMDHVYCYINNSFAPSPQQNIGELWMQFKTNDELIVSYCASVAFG

- binding [1]: binds weakly
B1: Atg17 (protein, UniProt Q06410 1-417)
chain: MNEADVTKFVNNARKTLTDAQLLCSSANLRIVDIKKKLSSWQLSISKLNFLIVGLRQQGKFLYTILKEGIGTKLIQKQWNQAVLVVLVDEMKYWQYEITSKVQRLDGIVNELSISEKDDTDPSKLGDYISRDNVNLLNDKLKEVPVIERQIENIKLQYENMVRKVNKELIDTKLTDVTQKFQSKFGIDNLMETNVAEQFSRELTDLEKDLAEIMNSLTQHFDKTLLLQDKKIDNDEREELFKVVQGDDKELYNIFKTLHEVIDDVDKTILNLGQFLQAKIKEKTELHSEVSEIINDFNRNLEYLLIFKDISNLIDSFKNSCTQDIQTTKELCEFYDNFEESYGNLVLEAKRRKDVANRMKTILKDCEKQLQNLDAQDQEERQNFIAENGTYLPETIWPGKIDDFSSLYTLNYNVKNP

- binding [2]: binds
B2: Atg17 overexpressed with the ADH1 promoter (protein, UniProt Q06410 1-417)
chain: MNEADVTKFVNNARKTLTDAQLLCSSANLRIVDIKKKLSSWQLSISKLNFLIVGLRQQGKFLYTILKEGIGTKLIQKQWNQAVLVVLVDEMKYWQYEITSKVQRLDGIVNELSISEKDDTDPSKLGDYISRDNVNLLNDKLKEVPVIERQIENIKLQYENMVRKVNKELIDTKLTDVTQKFQSKFGIDNLMETNVAEQFSRELTDLEKDLAEIMNSLTQHFDKTLLLQDKKIDNDEREELFKVVQGDDKELYNIFKTLHEVIDDVDKTILNLGQFLQAKIKEKTELHSEVSEIINDFNRNLEYLLIFKDISNLIDSFKNSCTQDIQTTKELCEFYDNFEESYGNLVLEAKRRKDVANRMKTILKDCEKQLQNLDAQDQEERQNFIAENGTYLPETIWPGKIDDFSSLYTLNYNVKNP

- binding [3]: binds
B3: Atg17 fused with the Gal4 activation domain (pGAD-ATG17) (protein, UniProt Q06410 1-417)
chain: MNEADVTKFVNNARKTLTDAQLLCSSANLRIVDIKKKLSSWQLSISKLNFLIVGLRQQGKFLYTILKEGIGTKLIQKQWNQAVLVVLVDEMKYWQYEITSKVQRLDGIVNELSISEKDDTDPSKLGDYISRDNVNLLNDKLKEVPVIERQIENIKLQYENMVRKVNKELIDTKLTDVTQKFQSKFGIDNLMETNVAEQFSRELTDLEKDLAEIMNSLTQHFDKTLLLQDKKIDNDEREELFKVVQGDDKELYNIFKTLHEVIDDVDKTILNLGQFLQAKIKEKTELHSEVSEIINDFNRNLEYLLIFKDISNLIDSFKNSCTQDIQTTKELCEFYDNFEESYGNLVLEAKRRKDVANRMKTILKDCEKQLQNLDAQDQEERQNFIAENGTYLPETIWPGKIDDFSSLYTLNYNVKNP
